Assay results taken from patent US10975101B2, “Ultra-potent vinca alkaloids: added molecular complexity further disrupts the tublin dimer-dimer interface” (priority 2016, dated 2021).
Some entries share one result that the patent states for a list of compounds. For at least one compound, name, drawing or mass did not settle the structure. Some ranges recur; such a range may be that of the whole group of compounds.

Experiments:
[1] = test system: HCT116/VM46 (a vinblastine-resistant strain of HCT116) cells; assay: Cell growth inhibition assay, HCT116/VM46; type: cell-based, human; details: read-out: IC50's against vinblastine-resistant tumor cell line HCT116/VM46
Experimental: (§1) Compounds were tested for their cell growth inhibition of L1210 (ATCC no. CCL-219, mouse lymphocytic leukemia) cells, HCT116 (ATCC no. CCL-247, human colorectal carcinoma) cells, and HCT116/VM46 (a vinblastine-resistant strain of HCT116) cells in culture. A population of cells (>1×10^6 cells/mL as determined with a hemocytometer) was diluted with an appropriate amount of Dulbecco's Modified Eagle Medium (DMEM, Gibco) containing 10% fetal bovine serum (FBS, Gibco) to a final concentration of 30000 cells/mL.
(§2) To each well of a 96-well plate (Corning Costar), 100 μL of the cell media solution was added with a multichannel pipet. The cultures were incubated at 37° C. in an atmosphere of 5% CO2 and 95% humidified air for 24 hours. The test compounds were added to the plate as follows: test substances were diluted in DMSO to a concentration of 1 mM and 10-fold serial dilutions were performed on a separate 96-well plate. Fresh culture medium (100 μL) was added to each well of cells to constitute 200 μL of medium per well followed by 2 μL of each test agent. Compounds were tested in duplicate (n=2-18 times) at six concentrations between 0-1000 nM or 0-10000 nM. Following addition, cultures were incubated for an additional 72 hours.
(§3) A phosphatase assay was used to establish the IC50 values as follows: the media in each cell was removed and 100 μL of phosphatase solution (100 mg phosphatase substrate in 30 mL of 0.1 M NaOAc, pH 5.5, 0.1% Triton X-100 buffer) was added to each well. The plates were incubated at 37° C. for either 5 minutes (L1210) or 15 minutes (HCT116 and HCT116/VM46). After the given incubation time, 50 μL of 0.1 N NaOH was added to each well and the absorption at 405 nm was determined using a 96 well plate reader. As the absorption is directly proportional to the number of living cells, the IC50 values were calculated and the reported values represent of the average of 4-36 determinations (SD±10%).

[2] = test system: vinblastine sensitive tumor cell lines (L1210 and HCT116); assay: Cell growth inhibition, vinblastine-sensitive lines stated together; type: cell-based; details: L1210 and HCT116, range over both lines; read-out: IC50's against vinblastine-sensitive tumor cell lines
Experimental: as §1, §2, §3

tubulin = assay: BODIPY-vinblastine/tubulin competitive displacement assay; type: binding; details: tubulin 0.91 μM, BODIPY-VBL 1.8 μM, vinblastine analogue 18 μM, 37° C.; average of 4 measurements ± SD; listed as 10′-Fluorovinblastine
Experimental: As a consequence, the commercially available BODIPY-vinblastine fluorescent probe was used to assess tubulin binding and develop its use in a direct competitive binding assay.^15 [(a) Jiang et al., Cancer Res. 1998, 58, 5389; (b) Zhang et al., PloS one 2009, 4, e4881; (c) Rai et al., PloS one 2012, 7, e44311 and (d) Rashid et al., Biochemistry 2015, 54, 2149.]
In carrying out this study, tubulin (0.1 mg/mL, 0.91 μM) was incubated with BODIPY-vinblastine (BODIPY-VBL, 1.8 μM) and a vinblastine analogue (18 μM) at 37° C. in PEM buffer containing 850 μM GTP. The BODIPY-VBL fluorescence intensity (FI) (ex: 480 nm, em: 514 nm) of 100 μL aliquots from each incubation were measured in a fluorescence micro-plate reader at 37° C. Control studies were performed with BODIPY-VBL (control 1) in the absence of a competitive ligand (maximum FI enhancement due to tubulin binding) and (control 2) in the absence of tubulin (no FI enhancement due to tubulin binding). % BODIPY-VBL displacement was calculated by the formula (control 2 FI−experiment FI)/(control 2 FI−control 1 FI)×100. […]
100 μL of 1 mg/mL tubulin in PEM and 25 μL of 72 μM BODIPY-VBL in DMSO were added to 850 μL of buffer (PEM+1 mM GTP). […] The solution was incubated for an additional 60 minutes at 37° C., after which 100 μL aliquots of each incubation were transferred into the wells of a 96-well plate (warmed to 37° C. in the plate reader). […]

CC[C@]1(NC(=O)N2Cc3ccc(NC(=O)c4cccnn4)cc3C2)C[C@H]2CN(CCc3c([nH]c4ccccc34)[C@@](C(=O)OC)(c3cc4c(cc3OC)N(C)[C@H]3[C@@](O)(C(=O)OC)[C@H](OC(C)=O)[C@]5(CC)C=CCN6CC[C@]43[C@@H]65)C2)C1 [Compound 61]
IC50 [1]: 0.83 to 0.88 nM | IC50 [2]: 0.05 to 0.075 nM

CC[C@]1(NC(=O)N2CC=CC2)C[C@H]2CN(CCc3c([nH]c4ccccc34)[C@@](C(=O)OC)(c3cc4c(cc3OC)N(C)[C@H]3[C@@](O)(C(=O)OC)[C@H](OC(C)=O)[C@]5(CC)C=CCN6CC[C@]43[C@@H]65)C2)C1 [Compound 22]
IC50 [2]: 0.4 to 0.6 nM

CC[C@]1(O)C[C@H]2CN(CCc3c([nH]c4ccc(F)cc34)[C@@](C(=O)OC)(c3cc4c(cc3OC)N(C)[C@H]3[C@@](O)(C(=O)OC)[C@H](OC(C)=O)[C@]5(CC)C=CCN6CC[C@]43[C@@H]65)C2)C1 [Compound 71, 10′-fluorovinblastine, reference compound]
% displacement of BODIPY-vinblastine bound to tubulin (tubulin): 48-49%

CC[C@]1(NC(=O)N2Cc3ccccc3C2)C[C@H]2CN(CCc3c([nH]c4ccccc34)[C@@](C(=O)OC)(c3cc4c(cc3OC)N(C)[C@H]3[C@@](O)(C(=O)OC)[C@H](OC(C)=O)[C@]5(CC)C=CCN6CC[C@]43[C@@H]65)C2)C1 [Compound 9]
IC50 [2]: 0.4 to 0.6 nM

CC[C@]1(NC(=O)N2Cc3ccc(NC(=O)c4cnccn4)cc3C2)C[C@H]2CN(CCc3c([nH]c4ccccc34)[C@@](C(=O)OC)(c3cc4c(cc3OC)N(C)[C@H]3[C@@](O)(C(=O)OC)[C@H](OC(C)=O)[C@]5(CC)C=CCN6CC[C@]43[C@@H]65)C2)C1 [Compound 60]
IC50 [1]: 0.83 to 0.88 nM | IC50 [2]: 0.05 to 0.075 nM

CC[C@]1(NC(=O)N2Cc3ccc(NC(=O)c4ccncn4)cc3C2)C[C@H]2CN(CCc3c([nH]c4ccccc34)[C@@](C(=O)OC)(c3cc4c(cc3OC)N(C)[C@H]3[C@@](O)(C(=O)OC)[C@H](OC(C)=O)[C@]5(CC)C=CCN6CC[C@]43[C@@H]65)C2)C1 [Compound 58]
IC50 [1]: 0.83 to 0.88 nM | IC50 [2]: 0.05 to 0.075 nM
